Reference: patent publication US6087330A (Texas Biotechnology Corporation, priority 1998, dated 2000)
Where no end group is shown, it is not given here.

Test: general procedure: Fmoc solid-phase peptide synthesis; Fmoc-Cys(Trt) Wang resin; HBTU or DIC, if necessary HOBT
Conditions: whole synthesis, scale 25 nM

In the case of “CWLDVC-OH (cysteine pairing not given here)”, the “final HPLC purity” value (analytical HPLC) was >98% and the isolated mass was 10.2 mg.
